Measured data: PubChem BioAssay AID1259405 (NCATS, 2018)

Purpose: 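Mouse-designed siRNAs used to find CHO productivity engineering targets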 (primary screen)
System: Chinese hamster CHO-K1 ovary cells with stable secreted eGFP expression
Reagent: single siRNA against mouse genes, 0.8 pmol siRNA per well (2 µl of 400 nM stock)
Duration: 3 days
Read-out: 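Per-well intracellular GFP measured by laser scanning cytometry, plus viability from ATP luminescence, each relative to plate median of non-targeting control wells, in %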
Scale: GFP, % of control: higher = more GFP per well, higher productivity; viability (ATP), % of control: higher = more viable cells (more ATP)
Active means: 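a knock-down is called active if GFP reaches 120% or more of non-targeting control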
The deposit covers about 50,000 reagents; this is a random part of them. Over the whole deposit, about 4,000 (8%) got an active call. 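Mouse siRNA library applied to hamster cells; one well for each siRNA.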 A number with no mark means an inactive call. Reagents against one gene are numbered here.

gene,reagent no.,"GFP, % of control","viability (ATP), % of control"
Rsu1,1,97.9,81.3
Rsu1,2,64.4,59.4
Rsu1,3,47.1,37.3
Gprc5d,1,57.3,88.2
Gprc5d,2,56.8,72
Rnasel,1,78.5,124
Rnasel,2,49.4,47
Sprr2b,1,31.6,39.7
Sprr2b,2,34.5,52.9
Sprr2b,3,114,112
Dok7,1,66.9,45.1
Dok7,2,83,79.6
Dok7,3,95.3,84.4
Cacna2d2,1,91.3,60.9
Cacna2d2,2,68.7,41.4
Cacna2d2,3,85.7,95.4
Or5b99,1,53.6,73.6
Or5b99,2,103,85.4
Or5b99,3,55.6,43.4
Usp45,1,71.5,46.6
Usp45,2,80,68.8
Usp45,3,76.7,79.8
Nme1,1,121 (active),102
Nme1,2,48.6,66.8
Nme1,3,85.9,77.9
Or52d1,1,105,78.4
Or52d1,2,196 (active),66.4
Or52d1,3,55,59.6
Timm29,1,67,88.3
Timm29,2,70.4,91.4
Timm29,3,88.3,71.7
Pramel25,1,107,94.8
Pramel25,2,40.4,43.7
Pramel25,3,112,63.4
Ott,1,42.4,48.1
Ott,2,76.1,85.4
Ott,3,75.6,19.6

Continued (12 carried over from the part before).
gene,reagent no.,"GFP, % of control","viability (ATP), % of control"
Or52d1,1,105,78.4
Or52d1,2,196 (active),66.4
Or52d1,3,55,59.6
Timm29,1,67,88.3
Timm29,2,70.4,91.4
Timm29,3,88.3,71.7
Pramel25,1,107,94.8
Pramel25,2,40.4,43.7
Pramel25,3,112,63.4
Ott,1,42.4,48.1
Ott,2,76.1,85.4
Ott,3,75.6,19.6
Ly6a,1,70.7,63.5
Ly6a,2,108,81.4
Ly6a,3,126 (active),74
Spryd7,1,61.6,79.1
Spryd7,2,110,116
Spryd7,3,64.3,115
Ang4,1,97.3,85.3
Ang4,2,95.4,87.1
Ang4,3,197 (active),86.6
Alg2,1,86.5,97.5
Alg2,2,98.8,155
Alg2,3,135 (active),102
Cep295,1,72.8,66.5
Cep295,2,63.5,97.4
Cep295,3,128 (active),115
Ankk1,1,134 (active),110
Sfrp4,1,111,88.5
Sfrp4,2,74.2,53.4
Sfrp4,3,51.8,53
Snx13,1,140 (active),139
Snx13,2,101,104
Snx13,3,120,69
Klhl36,1,112,124
Klhl36,2,77.4,79.8
Klhl36,3,153 (active),148
C87436,1,96.1,102
C87436,2,75.2,74.2
C87436,3,119,107
Fam98a,1,64.3,83
Fam98a,2,76,77.5
Fam98a,3,82.3,58.8
Eeig1,1,68,60
Eeig1,2,62.6,62.5
Eeig1,3,141 (active),122
Mgarp,1,67.1,99.9
Mgarp,2,34.2,46.5
Mgarp,3,99.9,111
Or5w19,1,85.4,53.8
Or5w19,2,77.7,51.2
Or5w19,3,74.8,78.6
Taf10,1,115,64
Taf10,2,122 (active),125
Taf10,3,215 (active),121
Lonrf2,1,74.4,53.2
Lonrf2,2,57.4,52.4
Lonrf2,3,71.2,68.4
Cacna1s,1,73.1,78.8
Cacna1s,2,29.4,30.9
Cacna1s,3,97.6,74.1
